{"source": "PubChem BioAssay AID602196 (INSERM, 2012)", "purpose": "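Genes whose knock-down alters cisplatin killing of lung cancer cells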", "cells": "human A549 lung cancer cells", "knock-down reagent": "siRNA pair against human genes", "timing": "48 h transfection before cisplatin; time from cisplatin to read-out not stated", "conditions": "cisplatin at a dose killing half of control-siRNA cells; exact dose and duration not given", "measurement": "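Cisplatin cell death as a shift from the 50% death seen with control siRNA; siRNAs toxic or growth-blocking alone scored 0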", "reading the numbers": "two-siRNA summed score (-2 to +2): higher = both siRNAs protect from cisplatin killing; -2 means both sensitise; mean protection from cisplatin (shift in death): higher = protection from cisplatin killing", "active means": "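siRNAs harmful alone (LDH or WST-1) get 0; others get +1 for less and -1 for more cisplatin killing; genes are active when the two siRNAs give the same sign, summing to ±2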", "calls": "active = both siRNAs shift cisplatin killing the same way; inactive = no consistent shift, or siRNA harmful alone", "note": "The deposit covers about 23,000 reagents; shown is a part drawn at random. In the full data, 455 (2%) are marked active. 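Active includes both protection and sensitisation; some change values fall well beyond the stated -50 to +50 range.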 Not all columns of the deposit are shown. Not given: the amount of reagent."}
{"gene knocked down": "ABHD6", "two-siRNA summed score (-2 to +2)": 1, "mean protection from cisplatin (shift in death) (%)": 2.1, "Call": "inactive"}
{"gene knocked down": "LOC439947", "two-siRNA summed score (-2 to +2)": 0, "mean protection from cisplatin (shift in death) (%)": 11.1, "Call": "inactive"}
{"gene knocked down": "XIAP", "two-siRNA summed score (-2 to +2)": 0, "mean protection from cisplatin (shift in death) (%)": -1, "Call": "inactive"}
{"gene knocked down": "RPL10P17", "two-siRNA summed score (-2 to +2)": 0, "mean protection from cisplatin (shift in death) (%)": 10.8, "Call": "inactive"}
{"gene knocked down": "GET1", "two-siRNA summed score (-2 to +2)": 0, "mean protection from cisplatin (shift in death) (%)": 0.3, "Call": "inactive"}
{"gene knocked down": "SPEN", "two-siRNA summed score (-2 to +2)": -1, "mean protection from cisplatin (shift in death) (%)": -11, "Call": "inactive"}
{"gene knocked down": "MORC3", "two-siRNA summed score (-2 to +2)": 0, "mean protection from cisplatin (shift in death) (%)": -4.5, "Call": "inactive"}
{"gene knocked down": "TRMT61A", "two-siRNA summed score (-2 to +2)": 1, "mean protection from cisplatin (shift in death) (%)": 24.6, "Call": "inactive"}
{"gene knocked down": "ATXN2", "two-siRNA summed score (-2 to +2)": 1, "mean protection from cisplatin (shift in death) (%)": -0.3, "Call": "inactive"}
{"gene knocked down": "LOC440391", "two-siRNA summed score (-2 to +2)": 0, "mean protection from cisplatin (shift in death) (%)": 11.1, "Call": "inactive"}
{"gene knocked down": "HOXD11", "two-siRNA summed score (-2 to +2)": -1, "mean protection from cisplatin (shift in death) (%)": -4.2, "Call": "inactive"}
{"gene knocked down": "RIMS1", "two-siRNA summed score (-2 to +2)": 1, "mean protection from cisplatin (shift in death) (%)": 13.6, "Call": "inactive"}

Targets above whose target name begins with L or l (2):
{"gene knocked down": "LOC439947", "two-siRNA summed score (-2 to +2)": 0, "mean protection from cisplatin (shift in death) (%)": 11.1, "Call": "inactive"}
{"gene knocked down": "LOC440391", "two-siRNA summed score (-2 to +2)": 0, "mean protection from cisplatin (shift in death) (%)": 11.1, "Call": "inactive"}
